Assay results reported in PubChem BioAssay AID1439 (NMMLSC, 2008).
Screen size: about 220,000 compounds; about 770 (0.35%) were called active. Inconclusive results, whose numbers are uncertain, are shown with a selection of clear calls. No stated cut-off is given here; in the data, active means binding response below about 49% or above about 150%; inconclusive means no clear call, values can overlap the other calls; inactive means in between.

Sequences of proteins named here, by UniProt entry; tags and fusion partners are left off.
UniProt P09471, whole entry, looked up: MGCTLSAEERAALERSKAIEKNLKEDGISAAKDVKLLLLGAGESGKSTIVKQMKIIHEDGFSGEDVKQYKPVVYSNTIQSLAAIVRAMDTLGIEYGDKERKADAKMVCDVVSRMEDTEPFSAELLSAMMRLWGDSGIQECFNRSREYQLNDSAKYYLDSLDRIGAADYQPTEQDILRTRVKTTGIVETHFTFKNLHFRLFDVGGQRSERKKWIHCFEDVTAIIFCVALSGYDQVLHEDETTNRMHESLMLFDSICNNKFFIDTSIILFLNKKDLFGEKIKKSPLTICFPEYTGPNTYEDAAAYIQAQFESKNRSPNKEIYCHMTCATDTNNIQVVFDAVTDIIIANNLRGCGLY

The compounds below were run against Guanine nucleotide-binding protein G(o) subunit alpha (Homo sapiens) (UniProt P09471) (assay: RGS7-Galphao binding modulators, primary screen, biochemical, multiplexed bead flow cytometry (AID 1439;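 further: fluorescent Galphao held in activated GDP-AlF4 state binding bead-coupled RGS7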)). Conditions: at 10 µM, actives lie on both sides.

Row | Structure (SMILES) | binding response (% of control)
1 | O=C(N/N=C/C(Br)=C/c1ccccc1)c1cccnc1 | inconclusive: 85.5%
2 | N#Cc1cc2c(nc1Cl)CCC2 | inconclusive: 36.3%
3 | COc1ccc2cc(N=Cc3nc(-c4ccc(C)cc4)oc3O)cnc2c1 | inactive: 101%
4 | O=S(=O)(c1ccc(F)c(F)c1F)N1CCN(C(=S)Nc2ccccc2)CC1 | inactive: 104%
5 | Cc1cccc(/C=N/Nc2nncc3ccccc23)c1 | inconclusive: 112%
6 | COc1ccc2c(c1)c(CC(=O)Nc1nnc(C3CC3)s1)c(C)n2C(=O)c1ccc(Cl)cc1 | inconclusive: 93.2%
7 | COc1ccccc1NC(=O)Nc1ccc(CC#N)cc1 | inconclusive: 64.9%
8 | Cc1ccc(SCCOCCN2CC(C)OC(C)C2)cc1 (stereo unspecified) | inconclusive: 96.2%
9 | CCCC(=O)NC(=S)c1c(C)n(C)n(-c2ccccc2)c1=O | inconclusive: 91.6%
10 | COc1cc2c(c(OC)c1OC)CCc1cnoc1-2 | inconclusive: 68.7%
11 | CCOc1ncccc1C(=O)N1CCCSC1=Nc1ccc(C(C)=O)cc1 | inconclusive: 100%
12 | O=C1NCCN1CCN1C(=O)c2ccccc2NC1c1ccccc1 (stereo unspecified) | inconclusive: 102%
13 | Cc1[nH]n(-c2ccccc2)c(=O)c1C(=O)c1ccc(Cl)cc1 | inconclusive: 130%
14 | Cc1cc(C)nc(SCc2ccc(C(=O)N/N=C3\CCCC(=O)C3)cc2)n1 | inactive: 96.8%
15 | COc1ccc(OC)c(C(=O)CSc2nnc(Cc3cccs3)n2CCc2ccccc2)c1 | inactive: 100%
16 | Cc1nc(C(F)(F)F)ccc1C(=O)Nc1ccc(C(F)(F)F)cn1 | inconclusive: 122%
17 | O=S(=O)(NC(=S)NC1CCCCC1)c1cccs1 | inconclusive: 88.1%
18 | O=C(Cc1c(Cl)cccc1Cl)OCC(=O)N1CCN(C(=O)c2ccco2)CC1 | inconclusive: 95.5%
19 | CCOC(=O)c1ccc2c(c1)n(CCCS(=O)(=O)[O-])c(/C=C/c1ccc(Cl)cc1)[n+]2CC | inconclusive: 247%
20 | N#Cc1cnn2c(-c3cccc(C(F)(F)F)c3)ccnc12 | inconclusive: 63.3%
21 | CCn1c(=O)oc2cc(NC(=O)CCl)ccc21 | inconclusive: 71.3%
22 | CC1(C)C2CCC1(C)C(Nc1ccccc1)C2 (stereo unspecified) | inconclusive: 158%
23 | NC(=O)c1nnsc1-c1ccc(-c2snnc2C(N)=O)cc1 | inconclusive: 98.7%

Row | Structure (SMILES) | binding response (% of control)
24 | CC(=O)Nc1ccc(S(=O)(=O)N=S(C)C)cc1 | inconclusive: 103%
25 | CCOc1ccc(OCC)c(NC(=O)CN2CCN(c3cccc(C)c3)C(C)C2)c1 (stereo unspecified) | inactive: 98.9%
26 | CCOC(=O)c1c(C)n(C)c2ccc(OC)c(NC(=O)CCN3CCC(Cc4ccccc4)CC3)c12 | inconclusive: 73.7%
27 | COc1ccc2c(CCNC(N)=S)c[nH]c2c1 | inconclusive: 47%
28 | O=[N+]([O-])c1ccc(-c2nc(-c3ccncc3)no2)cc1 | inconclusive: 77.4%
29 | Cc1ccc(NC(=O)CC2C(=O)N(Cc3ccccc3)C(=S)N2NC(=O)c2ccccc2)c(C)c1 (stereo unspecified) | inactive: 97.6%
30 | CCN(C(=O)CSc1nnnn1-c1ccccc1)C1CCS(=O)(=O)C1 (stereo unspecified) | inactive: 104%
31 | CCNc1nc(NC(C)CC)nc(ON=C(C)C)n1 (stereo unspecified) | inconclusive: 117%
32 | Cc1ccccc1NC(=O)CN1C(=O)CSc2ccccc21 | inconclusive: 96.6%
33 | O=C(Cc1n[nH]c(=O)c2ccccc12)OCC(=O)N(Cc1ccccc1)Cc1ccccc1 | inconclusive: 92.6%
34 | CCOc1ccc(C(=O)N/N=C/c2c(C)[nH]c(=O)[nH]c2=O)cc1 | inconclusive: 89.2%
35 | CN(C)c1ccc(/C=C/c2ccc3ccccc3[n+]2C)cc1 | inactive: 103%
36 | COc1ccc(-c2nn(-c3ccccc3)cc2CN(C)CCn2ccnc2C)c(F)c1 | inconclusive: -59.3%
37 | COc1ccccc1N(CC(=O)N/N=C/c1ccccc1C(=O)O)S(C)(=O)=O | inconclusive: 45.2%
38 | Oc1cccc2cc3cccc(O)c3c(O)c12 | inconclusive: 52.3%
39 | Cc1cccc(C)c1NC(=O)C(NC(=O)CN1C(=O)c2ccccc2C1=O)c1ccccc1 (stereo unspecified) | inactive: 92.9%
40 | CC(C)OP(=O)(OC(C)C)C(O)c1ccc(N(C)C)cc1 (stereo unspecified) | inconclusive: 102%
41 | Cc1ccc2nc(-c3cccnc3)cc(C(=O)N3CCN(c4ccc([N+](=O)[O-])cc4)CC3)c2c1 | inconclusive: 112%
42 | Cc1ccc(-c2csc3nc4cc(C(=O)NC5CCC(O)CC5)ccc4c(=O)n23)cc1 (stereo unspecified) | inconclusive: 79.1%
43 | O=C1c2cccc3c(N4CCCCC4)ccc(c23)C(=O)N1c1ccc(O)cc1 | inconclusive: 100%
44 | O=C(Nn1c(C2CCCCC2)nc2ccccc2c1=O)c1ccc([N+](=O)[O-])cc1Cl | inactive: 100%
45 | Cc1cc(C(=O)COC(=O)C23CC4CC(CC(O)(C4)C2)C3)c(C)n1-c1c(C)n(C)n(-c2ccccc2)c1=O | inconclusive: 117%
46 | COc1ccccc1NCCC(=O)OCC(=O)NCc1ccco1 | inactive: 90%
